In assay [1] the target is CN-AbdA (AbdominalA fused to the N-terminal fragment of Cerulean) (Drosophila (D. melanogaster)) (UniProt P29555). The assay is described as follows: split reporter; Venus- or Cerulean-based BiFC in live Drosophila embryos; ORF-CC with VN-AbdA or CN-AbdA; abdA-Gal4 driver (epidermis, stage 10/11) or 24B-Gal4 driver (somatic mesoderm, stage 14); confocal observation.
The target of assay [2] is VN-AbdA (AbdominalA fused to the N-terminal fragment of Venus) (Drosophila (D. melanogaster)) (UniProt P29555). Described as above.
Assay [3] has as its target T1, sfGFPN-Exd (Extradenticle fused to the N-terminal fragment of super-folder GFP) (Drosophila (D. melanogaster)) (UniProt P40427).
T1 sequence: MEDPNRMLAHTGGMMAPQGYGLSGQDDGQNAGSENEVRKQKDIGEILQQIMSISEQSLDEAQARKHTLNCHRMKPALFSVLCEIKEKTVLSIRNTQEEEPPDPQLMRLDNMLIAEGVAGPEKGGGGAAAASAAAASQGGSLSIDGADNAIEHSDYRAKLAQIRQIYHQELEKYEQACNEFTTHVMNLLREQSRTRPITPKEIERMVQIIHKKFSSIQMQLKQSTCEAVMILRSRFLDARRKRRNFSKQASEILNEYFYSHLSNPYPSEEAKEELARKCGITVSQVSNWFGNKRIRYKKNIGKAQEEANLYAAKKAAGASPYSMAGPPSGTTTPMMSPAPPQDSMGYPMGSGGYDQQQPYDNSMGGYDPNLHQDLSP
As to the kind of experiment: split reporter; BiFC in live Drosophila embryos between ORF-CC constructs and VN-Exd or sfGFPN-Exd; abdA-Gal4 driver, epidermis of stage 10 embryos; sfGFP excitation and emission wavelengths for sfGFPN-Exd.

Sequences of proteins named here, by UniProt entry; tags and fusion partners are left off.
UniProt P29555: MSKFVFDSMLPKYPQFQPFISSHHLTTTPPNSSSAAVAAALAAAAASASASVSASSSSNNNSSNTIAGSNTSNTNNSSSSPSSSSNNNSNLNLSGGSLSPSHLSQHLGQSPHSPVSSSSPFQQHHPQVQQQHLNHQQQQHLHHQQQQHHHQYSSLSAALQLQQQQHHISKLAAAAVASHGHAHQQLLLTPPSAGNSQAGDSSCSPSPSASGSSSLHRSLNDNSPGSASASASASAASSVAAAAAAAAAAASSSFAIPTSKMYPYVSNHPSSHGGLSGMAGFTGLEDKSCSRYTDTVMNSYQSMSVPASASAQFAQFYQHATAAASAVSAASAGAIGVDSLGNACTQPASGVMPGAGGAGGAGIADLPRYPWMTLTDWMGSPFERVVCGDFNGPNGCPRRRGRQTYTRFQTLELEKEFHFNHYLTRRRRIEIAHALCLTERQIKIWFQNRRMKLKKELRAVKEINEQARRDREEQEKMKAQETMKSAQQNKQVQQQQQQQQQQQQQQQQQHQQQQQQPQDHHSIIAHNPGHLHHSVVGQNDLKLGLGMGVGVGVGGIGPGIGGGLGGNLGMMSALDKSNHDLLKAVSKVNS

Assay [4] addresses VN-AbdA (AbdominalA fused to the N-terminal fragment of Venus) (Drosophila (D. melanogaster)) (UniProt P29555). The assay is described as follows: split reporter; BiFC competition in live Drosophila embryos: VN-AbdA and ORF-CC with co-expression of the corresponding non-complementing ORF-3xHA; abdA-Gal4 driver, epidermis of stage 10/11 embryos; identical parameters of confocal acquisition.

Assay [5] concerns the target T2, VN-Exd (Extradenticle fused to the N-terminal fragment of Venus) (Drosophila (D. melanogaster)) (UniProt P40427).
T2 sequence: T1 sequence
As to the kind of experiment: split reporter; bicolour BiFC in live Drosophila embryos: ORF-CC co-expressed with CN-AbdA, VN-Exd and a mCherry reporter; abdA-Gal4 driver, stage 10 embryos.

The target of assay [6] is CN-AbdA (AbdominalA fused to the N-terminal fragment of Cerulean) (Drosophila (D. melanogaster)) (UniProt P29555). The assay is described as above.

Results are given in words; binding and its absence hold for the method and conditions named. Binding seen in cells or lysates may run through a third protein. Some results given as binding are weak or reduced against the parent protein; the word gives no strength. For part of these data: Tags and fused reporters may be left off the sequences shown.

B1: Empty spiracles ORF-CC (Ems-CC) (protein, UniProt P18488 1-494)
chain: MTKMIPPVPTAAAAVMMPTPKQKIGFSIESIVGNDVSTAGGNSTPDLSGPQSPPPGERNVPGSPPQTPPATLTLIPGSPPHHLMAPPAHGLPYPHPHAQQQHLQAPHPHPHLSPAQQHVLHQHLLMQQQHPGTPKSHQDIQELLQRLHHNAAMASGLSPLQTRLSPETEQPQMAVSLKRERSPAPPAMEQAENPAQRIQPPHTPPKSVSPQSSQPSSSPTLLISSPHATPPQQQQQQPPPNYPKPAMMHPGGAGPMMMPGMPPAGLVRPFPMGPGGPPMPQGQPGLPDIKALPPYINAPPELPPQHNPHLIAAAQFQMAAALQAGHVLGPAAAAAAAAGLPPHAAQFMPNPGMARDSYQLYPWLLSRHGRIFPHRFPGSFLVPPFRKPKRIRTAFSPSQLLKLEHAFESNQYVVGAERKALAQNLNLSETQVKVWFQNRRTKHKRMQQEDEKGGEGGSQRNMHNGSGDEDDDELIDMEMDECPSDEEHELDASH
On to B1, for which the binding result is on record as “binds” in assay [1]; “binds” in assay [2]; “no binding” in assay [3]; “binds” in assay [4]; “no binding” in assay [5]; “binds” in assay [6].
